For test [1], the target named is TRIM9 (Tripartite Motif Containing 9) (UniProt Q9C026). The experiment in a line: co-IP; KYSE-410 cell lysate; supernatants incubated with antibody and A/G Sepharose beads at 4°C overnight, washed three times, Western blot; bait not stated. (In general: Immunoblotting shows a protein as a band on a membrane.)
Another test deals with FLAG-TRIM9 (UniProt Q9C026). The experiment in a line: co-IP; HEK-293T cell lysate; supernatants incubated with 5 μg anti-FLAG and A/G Sepharose beads at 4°C overnight, washed three times, Western blot.

Chains of the proteins cited; added tags and fusions are not shown.
UniProt Q9C026: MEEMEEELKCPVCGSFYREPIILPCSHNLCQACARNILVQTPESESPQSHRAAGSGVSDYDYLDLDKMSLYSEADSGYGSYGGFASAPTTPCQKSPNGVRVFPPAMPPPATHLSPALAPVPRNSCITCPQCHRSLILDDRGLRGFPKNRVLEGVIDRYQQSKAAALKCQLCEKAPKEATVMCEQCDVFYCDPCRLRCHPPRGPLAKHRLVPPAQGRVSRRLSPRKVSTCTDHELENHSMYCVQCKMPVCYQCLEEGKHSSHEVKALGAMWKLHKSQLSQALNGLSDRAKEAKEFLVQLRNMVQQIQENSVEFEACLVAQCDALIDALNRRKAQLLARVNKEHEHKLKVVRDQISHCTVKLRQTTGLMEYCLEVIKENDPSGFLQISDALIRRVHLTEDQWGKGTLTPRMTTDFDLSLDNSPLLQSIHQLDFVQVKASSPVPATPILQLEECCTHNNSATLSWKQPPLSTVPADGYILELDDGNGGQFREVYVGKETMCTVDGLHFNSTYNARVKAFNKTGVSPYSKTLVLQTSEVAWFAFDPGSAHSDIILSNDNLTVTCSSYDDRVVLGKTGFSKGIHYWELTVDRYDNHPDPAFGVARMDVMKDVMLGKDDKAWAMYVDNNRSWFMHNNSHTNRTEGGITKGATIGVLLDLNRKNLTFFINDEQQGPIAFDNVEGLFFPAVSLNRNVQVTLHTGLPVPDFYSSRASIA

From PMC10139803 come the findings set out here.

These are yes or no findings as the source states them, for the method shown. In cells and extracts the contact can be indirect. Some entries that bind do so weakly or less than the wild type.

B1: ZEB1 (zinc finger E-box binding homeobox 1) (protein, UniProt P37275 1-1124)
chain: MADGPRCKRRKQANPRRNNVTNYNTVVETNSDSDDEDKLHIVEEESVTDAADCEGVPEDDLPTDQTVLPGRSSEREGNAKNCWEDDRKEGQEILGPEAQADEAGCTVKDDECESDAENEQNHDPNVEEFLQQQDTAVIFPEAPEEDQRQGTPEASGHDENGTPDAFSQLLTCPYCDRGYKRFTSLKEHIKYRHEKNEDNFSCSLCSYTFAYRTQLERHMTSHKSGRDQRHVTQSGCNRKFKCTECGKAFKYKHHLKEHLRIHSGEKPYECPNCKKRFSHSGSYSSHISSKKCISLIPVNGRPRTGLKTSQCSSPSLSASPGSPTRPQIRQKIENKPLQEQLSVNQIKTEPVDYEFKPIVVASGINCSTPLQNGVFTGGGPLQATSSPQGMVQAVVLPTVGLVSPISINLSDIQNVLKVAVDGNVIRQVLENNQANLASKEQETINASPIQQGGHSVISAISLPLVDQDGTTKIIINYSLEQPSQLQVVPQNLKKENPVATNSCKSEKLPEDLTVKSEKDKSFEGGVNDSTCLLCDDCPGDINALPELKHYDLKQPTQPPPLPAAEAEKPESSVSSATGDGNLSPSQPPLKNLLSLLKAYYALNAQPSAEELSKIADSVNLPLDVVKKWFEKMQAGQISVQSSEPSSPEPGKVNIPAKNNDQPQSANANEPQDSTVNLQSPLKMTNSPVLPVGSTTNGSRSSTPSPSPLNLSSSRNTQGYLYTAEGAQEEPQVEPLDLSLPKQQGELLERSTITSVYQNSVYSVQEEPLNLSCAKKEPQKDSCVTDSEPVVNVIPPSANPINIAIPTVTAQLPTIVAIADQNSVPCLRALAANKQTILIPQVAYTYSTTVSPAVQEPPLKVIQPNGNQDERQDTSSEGVSNVEDQNDSDSTPPKKKMRKTENGMYACDLCDKIFQKSSSLLRHKYEHTGKRPHECGICKKAFKHKHHLIEHMRLHSGEKPYQCDKCGKRFSHSGSYSQHMNHRYSYCKREAEERDSTEQEEAGPEILSNEHVGARASPSQGDSDERESLTREEDEDSEKEEEEEDKEMEELQEEKECEKPQGDEEEEEEEEEVEEEEVEEAENEGEEAKTEGLMKDDRAESQASSLGQKVGESSEQVSEEKTNEA
In the case of B1, the binding entry (in test [1]; with FLAG-TRIM9) was “binds” throughout.
